# Source: the supplement of paper PMC10032668
# Sequences of proteins named here, by UniProt entry; tags and fusion partners are left off.
# CCNT1, O60563, UniProt O60563, whole entry: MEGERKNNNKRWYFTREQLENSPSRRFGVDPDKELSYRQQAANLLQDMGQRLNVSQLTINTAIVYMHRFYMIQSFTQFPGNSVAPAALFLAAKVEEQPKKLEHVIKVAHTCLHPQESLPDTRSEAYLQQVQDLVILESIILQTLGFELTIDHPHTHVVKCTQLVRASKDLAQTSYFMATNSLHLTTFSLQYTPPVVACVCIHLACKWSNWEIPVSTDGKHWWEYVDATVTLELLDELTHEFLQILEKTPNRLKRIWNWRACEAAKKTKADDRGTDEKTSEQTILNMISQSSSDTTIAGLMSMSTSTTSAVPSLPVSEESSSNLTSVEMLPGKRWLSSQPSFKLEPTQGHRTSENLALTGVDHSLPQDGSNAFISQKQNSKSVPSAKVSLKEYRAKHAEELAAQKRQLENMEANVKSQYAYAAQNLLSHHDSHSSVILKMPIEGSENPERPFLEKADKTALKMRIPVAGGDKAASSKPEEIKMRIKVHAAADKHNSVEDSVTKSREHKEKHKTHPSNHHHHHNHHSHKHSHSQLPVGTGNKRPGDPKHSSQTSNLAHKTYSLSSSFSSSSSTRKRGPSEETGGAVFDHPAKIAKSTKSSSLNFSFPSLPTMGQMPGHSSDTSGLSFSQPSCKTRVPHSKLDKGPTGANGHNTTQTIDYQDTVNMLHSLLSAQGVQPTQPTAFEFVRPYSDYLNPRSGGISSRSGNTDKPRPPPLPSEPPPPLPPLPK
# LARP4, Q71RC2, UniProt Q71RC2, whole entry: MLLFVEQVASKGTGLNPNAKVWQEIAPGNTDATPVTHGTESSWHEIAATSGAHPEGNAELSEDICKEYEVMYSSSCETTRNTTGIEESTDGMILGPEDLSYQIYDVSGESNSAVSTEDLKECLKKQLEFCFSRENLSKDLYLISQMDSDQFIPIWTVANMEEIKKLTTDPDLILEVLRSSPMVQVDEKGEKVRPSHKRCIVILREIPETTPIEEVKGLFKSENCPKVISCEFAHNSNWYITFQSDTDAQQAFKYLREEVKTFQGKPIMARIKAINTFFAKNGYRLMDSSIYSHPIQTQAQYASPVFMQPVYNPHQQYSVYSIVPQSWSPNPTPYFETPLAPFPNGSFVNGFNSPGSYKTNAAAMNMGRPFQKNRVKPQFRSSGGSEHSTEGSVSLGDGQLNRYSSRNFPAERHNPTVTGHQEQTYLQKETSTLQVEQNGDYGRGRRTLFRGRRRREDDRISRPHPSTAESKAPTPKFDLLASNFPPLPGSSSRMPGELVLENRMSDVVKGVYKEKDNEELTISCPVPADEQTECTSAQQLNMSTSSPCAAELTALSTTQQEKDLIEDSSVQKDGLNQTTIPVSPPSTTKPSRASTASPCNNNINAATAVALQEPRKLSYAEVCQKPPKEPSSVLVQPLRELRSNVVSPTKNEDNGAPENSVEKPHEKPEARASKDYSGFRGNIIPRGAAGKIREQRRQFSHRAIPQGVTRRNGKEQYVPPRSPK
# INTS12, Q96CB8, UniProt Q96CB8, whole entry: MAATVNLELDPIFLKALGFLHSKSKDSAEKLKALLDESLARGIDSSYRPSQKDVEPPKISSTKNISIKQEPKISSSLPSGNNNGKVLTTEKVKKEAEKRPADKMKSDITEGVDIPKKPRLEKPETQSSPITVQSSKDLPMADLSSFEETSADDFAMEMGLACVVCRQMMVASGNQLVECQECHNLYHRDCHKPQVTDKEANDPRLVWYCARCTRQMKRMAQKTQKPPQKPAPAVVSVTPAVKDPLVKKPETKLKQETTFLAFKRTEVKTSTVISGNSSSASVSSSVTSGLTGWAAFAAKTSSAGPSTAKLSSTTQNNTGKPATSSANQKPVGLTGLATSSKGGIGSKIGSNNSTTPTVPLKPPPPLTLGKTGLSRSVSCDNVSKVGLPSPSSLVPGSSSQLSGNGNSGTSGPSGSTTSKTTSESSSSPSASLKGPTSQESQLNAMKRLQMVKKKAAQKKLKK
# RANBP2, P49792, UniProt P49792, whole entry: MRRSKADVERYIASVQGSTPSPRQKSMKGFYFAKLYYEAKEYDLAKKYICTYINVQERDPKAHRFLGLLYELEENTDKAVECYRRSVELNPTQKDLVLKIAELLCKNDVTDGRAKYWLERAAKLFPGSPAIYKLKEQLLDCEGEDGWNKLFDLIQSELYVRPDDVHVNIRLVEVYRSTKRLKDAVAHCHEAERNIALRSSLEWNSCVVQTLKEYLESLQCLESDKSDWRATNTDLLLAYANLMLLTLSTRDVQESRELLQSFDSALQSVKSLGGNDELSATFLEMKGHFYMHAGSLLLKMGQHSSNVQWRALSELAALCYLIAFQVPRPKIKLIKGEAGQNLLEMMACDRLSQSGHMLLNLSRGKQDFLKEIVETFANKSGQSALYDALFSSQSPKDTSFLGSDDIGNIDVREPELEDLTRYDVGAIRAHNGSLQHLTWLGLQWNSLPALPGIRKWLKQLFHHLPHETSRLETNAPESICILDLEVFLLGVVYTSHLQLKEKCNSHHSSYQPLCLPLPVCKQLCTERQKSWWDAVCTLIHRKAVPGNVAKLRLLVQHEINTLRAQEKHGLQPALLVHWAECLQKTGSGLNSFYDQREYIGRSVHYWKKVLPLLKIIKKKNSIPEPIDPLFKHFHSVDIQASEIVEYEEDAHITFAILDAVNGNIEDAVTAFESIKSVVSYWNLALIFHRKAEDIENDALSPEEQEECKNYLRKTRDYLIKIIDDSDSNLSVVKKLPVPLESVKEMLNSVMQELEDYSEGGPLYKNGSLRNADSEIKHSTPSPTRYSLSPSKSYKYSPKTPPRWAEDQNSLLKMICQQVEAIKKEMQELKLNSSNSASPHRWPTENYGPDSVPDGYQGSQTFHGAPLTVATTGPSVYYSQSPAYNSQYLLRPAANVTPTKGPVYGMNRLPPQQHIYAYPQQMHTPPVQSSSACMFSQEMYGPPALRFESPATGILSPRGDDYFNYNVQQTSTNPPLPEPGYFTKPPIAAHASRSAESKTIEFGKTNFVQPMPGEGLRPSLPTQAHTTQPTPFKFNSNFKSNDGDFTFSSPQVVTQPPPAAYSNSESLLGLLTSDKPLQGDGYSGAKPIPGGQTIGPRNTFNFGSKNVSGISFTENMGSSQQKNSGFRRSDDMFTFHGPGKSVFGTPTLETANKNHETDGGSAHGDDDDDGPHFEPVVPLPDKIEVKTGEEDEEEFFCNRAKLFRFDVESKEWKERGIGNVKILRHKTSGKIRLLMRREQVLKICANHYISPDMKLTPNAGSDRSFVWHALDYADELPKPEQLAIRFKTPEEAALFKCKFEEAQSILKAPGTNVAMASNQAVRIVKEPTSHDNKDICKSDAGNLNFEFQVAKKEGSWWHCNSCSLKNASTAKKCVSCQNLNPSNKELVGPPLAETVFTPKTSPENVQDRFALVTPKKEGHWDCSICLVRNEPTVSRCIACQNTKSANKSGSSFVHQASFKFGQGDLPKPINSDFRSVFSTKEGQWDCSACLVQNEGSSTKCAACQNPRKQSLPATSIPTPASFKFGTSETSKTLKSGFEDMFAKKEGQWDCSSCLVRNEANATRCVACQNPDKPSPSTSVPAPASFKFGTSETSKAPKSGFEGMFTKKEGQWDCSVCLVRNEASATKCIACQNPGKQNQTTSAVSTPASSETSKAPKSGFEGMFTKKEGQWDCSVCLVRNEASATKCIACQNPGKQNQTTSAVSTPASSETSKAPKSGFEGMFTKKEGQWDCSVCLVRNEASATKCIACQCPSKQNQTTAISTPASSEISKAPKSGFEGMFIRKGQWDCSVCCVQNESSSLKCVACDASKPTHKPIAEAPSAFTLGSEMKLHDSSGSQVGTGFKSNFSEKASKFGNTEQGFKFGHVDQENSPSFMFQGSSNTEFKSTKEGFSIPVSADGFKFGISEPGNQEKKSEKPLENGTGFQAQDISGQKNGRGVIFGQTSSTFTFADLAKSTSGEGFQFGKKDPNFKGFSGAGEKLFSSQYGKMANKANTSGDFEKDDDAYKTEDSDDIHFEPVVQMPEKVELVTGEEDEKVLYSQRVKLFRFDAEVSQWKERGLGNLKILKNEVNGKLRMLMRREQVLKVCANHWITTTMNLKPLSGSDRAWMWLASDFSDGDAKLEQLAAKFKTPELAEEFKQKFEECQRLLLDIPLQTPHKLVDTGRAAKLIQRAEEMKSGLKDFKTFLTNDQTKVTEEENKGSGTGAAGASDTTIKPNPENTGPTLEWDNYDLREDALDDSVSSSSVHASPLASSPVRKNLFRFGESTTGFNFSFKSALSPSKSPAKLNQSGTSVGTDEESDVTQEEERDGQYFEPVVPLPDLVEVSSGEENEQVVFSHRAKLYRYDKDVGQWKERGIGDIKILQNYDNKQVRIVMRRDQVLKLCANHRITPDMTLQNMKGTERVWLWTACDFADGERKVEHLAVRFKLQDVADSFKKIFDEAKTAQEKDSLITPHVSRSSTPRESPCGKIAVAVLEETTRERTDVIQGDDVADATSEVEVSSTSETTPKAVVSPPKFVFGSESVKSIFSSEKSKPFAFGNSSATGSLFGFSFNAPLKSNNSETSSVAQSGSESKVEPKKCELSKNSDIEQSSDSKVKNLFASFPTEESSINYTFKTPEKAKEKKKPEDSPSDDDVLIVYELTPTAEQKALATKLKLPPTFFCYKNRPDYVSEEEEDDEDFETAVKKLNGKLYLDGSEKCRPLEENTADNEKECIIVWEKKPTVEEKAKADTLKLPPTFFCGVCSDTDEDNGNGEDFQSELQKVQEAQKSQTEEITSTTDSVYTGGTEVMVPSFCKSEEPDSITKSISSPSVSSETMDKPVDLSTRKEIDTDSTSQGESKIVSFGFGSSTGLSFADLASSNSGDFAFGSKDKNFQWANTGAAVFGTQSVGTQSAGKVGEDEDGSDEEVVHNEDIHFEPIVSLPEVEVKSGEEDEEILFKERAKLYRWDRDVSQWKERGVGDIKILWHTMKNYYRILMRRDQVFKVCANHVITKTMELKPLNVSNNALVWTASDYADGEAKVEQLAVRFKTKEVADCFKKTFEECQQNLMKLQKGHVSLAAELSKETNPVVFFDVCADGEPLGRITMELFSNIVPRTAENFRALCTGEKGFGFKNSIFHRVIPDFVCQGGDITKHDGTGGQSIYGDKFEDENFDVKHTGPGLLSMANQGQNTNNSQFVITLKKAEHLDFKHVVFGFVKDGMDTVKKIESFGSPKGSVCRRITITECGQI
# RBBP4, Q09028, UniProt Q09028, whole entry: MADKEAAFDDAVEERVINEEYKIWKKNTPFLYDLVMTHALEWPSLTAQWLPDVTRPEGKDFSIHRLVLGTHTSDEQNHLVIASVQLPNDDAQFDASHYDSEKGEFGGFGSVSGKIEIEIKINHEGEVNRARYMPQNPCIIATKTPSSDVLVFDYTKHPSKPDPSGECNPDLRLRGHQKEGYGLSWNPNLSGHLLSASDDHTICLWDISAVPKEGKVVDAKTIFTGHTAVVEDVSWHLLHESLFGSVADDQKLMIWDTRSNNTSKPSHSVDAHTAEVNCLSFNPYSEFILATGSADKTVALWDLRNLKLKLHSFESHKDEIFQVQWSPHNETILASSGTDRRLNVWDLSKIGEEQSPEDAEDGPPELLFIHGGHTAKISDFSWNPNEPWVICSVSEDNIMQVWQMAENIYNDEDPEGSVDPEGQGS
# SMN2, Q16637, UniProt Q16637, whole entry: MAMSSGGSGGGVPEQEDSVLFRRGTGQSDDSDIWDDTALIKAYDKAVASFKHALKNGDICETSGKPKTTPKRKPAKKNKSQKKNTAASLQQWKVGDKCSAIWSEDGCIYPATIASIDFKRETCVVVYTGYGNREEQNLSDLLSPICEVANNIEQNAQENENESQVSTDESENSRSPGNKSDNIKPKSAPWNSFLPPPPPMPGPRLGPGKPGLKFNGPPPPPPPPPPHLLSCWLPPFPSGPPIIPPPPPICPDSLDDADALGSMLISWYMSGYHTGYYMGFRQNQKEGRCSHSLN
# EIF3D, O15371, UniProt O15371, whole entry: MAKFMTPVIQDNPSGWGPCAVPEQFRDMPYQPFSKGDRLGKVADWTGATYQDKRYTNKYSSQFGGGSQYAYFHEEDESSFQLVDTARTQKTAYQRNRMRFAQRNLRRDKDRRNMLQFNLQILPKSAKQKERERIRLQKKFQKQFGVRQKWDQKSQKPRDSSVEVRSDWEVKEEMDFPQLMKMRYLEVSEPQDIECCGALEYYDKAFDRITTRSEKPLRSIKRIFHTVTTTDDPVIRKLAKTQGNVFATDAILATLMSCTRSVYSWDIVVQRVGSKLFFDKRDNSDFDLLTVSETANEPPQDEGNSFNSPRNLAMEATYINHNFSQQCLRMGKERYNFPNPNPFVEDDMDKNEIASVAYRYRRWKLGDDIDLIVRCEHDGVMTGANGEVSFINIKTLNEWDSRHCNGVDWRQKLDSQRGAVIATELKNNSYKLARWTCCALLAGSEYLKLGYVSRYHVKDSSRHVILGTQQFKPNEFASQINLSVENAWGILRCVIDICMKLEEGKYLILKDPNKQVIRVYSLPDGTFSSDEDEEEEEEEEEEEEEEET
# MAGOHB, Q96A72, UniProt Q96A72, whole entry: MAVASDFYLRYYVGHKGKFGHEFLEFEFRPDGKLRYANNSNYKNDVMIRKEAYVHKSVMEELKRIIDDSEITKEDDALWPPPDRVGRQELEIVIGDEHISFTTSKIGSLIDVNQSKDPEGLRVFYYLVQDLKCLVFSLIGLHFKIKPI
# Some of the results follow. The list holds hits alone, and they repeat only in part.
# Tests used:
# Assay in all cases: PRISMA enrichment of interactor (LFQ) in peptide spot vs all other peptide spots (log2 fold change); higher = stronger / more specific binding of the interactor to the peptide
# [1] = molecular target: CCDC47, Q96A33
# Method: (§1)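 PRISMA: 15-aa overlapping tiles (offset 8 aa) of 60 microproteins, plus SOS1/GLUT1 control peptides, were spot-synthesized on cellulose membranes in triplicate. Membranes were incubated with benzonase-treated HEK293T lysate, and bound proteins were identified by LC-MS/MS with LFQ. Enrichment is the log2 fold change of each protein in one spot versus all other spots. Only interactors passing the significance cutoff are listed.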
# [2] = molecular target: CTCF, P49711
# Method: as §1
# [3] = molecular target: HACD2, Q6Y1H2
# Method: as §1
# [4] = molecular target: HIST1H1E, P10412
# Method: as §1
# [5] = molecular target: POP1, Q99575
# Method: as §1
# [6] = molecular target: CASC3, O15234
# Method: as §1
# [7] = molecular target: COQ8A, Q8NI60
# Method: as §1
# [8] = molecular target: MAT1A, Q00266
# Method: as §1
# [9] = molecular target: MED23, Q9ULK4
# Method: as §1
# [10] = molecular target: NR3C1, P04150
# Method: as §1
# [11] = molecular target: TMEM256-PLSCR3
# Method: as §1
# [12] = molecular target: TP53, P04637
# Method: as §1
# [13] = molecular target: CCAR1, Q8IX12
# Method: as §1
# [14] = molecular target: CCNT1, O60563
# Method: as §1
# [15] = molecular target: DLGAP5, Q15398
# Method: as §1
# [16] = molecular target: ELOVL5, Q9NYP7
# Method: as §1
# [17] = molecular target: FARSA, Q9Y285
# Method: as §1
# [18] = molecular target: GTPBP6, O43824
# Method: as §1
# [19] = molecular target: HK2, P52789
# Method: as §1
# [20] = molecular target: IQCB1, Q15051
# Method: as §1
# [21] = molecular target: LARP4, Q71RC2
# Method: as §1
# [22] = molecular target: MRPS14, O60783
# Method: as §1
# [23] = molecular target: PRDX4, Q13162
# Method: as §1
# [24] = molecular target: PSMC6, P62333
# Method: as §1
# [25] = molecular target: RPUSD3, Q6P087
# Method: as §1
# [26] = molecular target: SAMM50, Q9Y512
# Method: as §1
# [27] = molecular target: SSBP1, Q04837
# Method: as §1
# [28] = molecular target: ZBTB10, Q96DT7
# Method: as §1
# [29] = molecular target: ZNF638, Q14966
# Method: as §1
# [30] = molecular target: CAPZB, P47756
# Method: as §1
# [31] = molecular target: DCAF7, P61962
# Method: as §1
# [32] = molecular target: EARS2, Q5JPH6
# Method: as §1
# [33] = molecular target: FAM98A, Q8NCA5
# Method: as §1
# [34] = molecular target: INTS12, Q96CB8
# Method: as §1
# [35] = molecular target: PHAX, Q9H814
# Method: as §1
# [36] = molecular target: PHF6, Q8IWS0
# Method: as §1
# [37] = molecular target: PPIL2, Q13356
# Method: as §1
# [38] = molecular target: PRKCSH, P14314
# Method: as §1
# [39] = molecular target: RANBP2, P49792
# Method: as §1
# [40] = molecular target: RBBP4, Q09028
# Method: as §1
# [41] = molecular target: RNF2, Q99496
# Method: as §1
# [42] = molecular target: SAP18, O00422
# Method: as §1
# [43] = molecular target: SMN2, Q16637
# Method: as §1
# [44] = molecular target: STRBP, Q96SI9
# Method: as §1
# [45] = molecular target: TELO2, Q9Y4R8
# Method: as §1
# [46] = molecular target: TIAL1, Q01085
# Method: as §1
# [47] = molecular target: USP15, Q9Y4E8
# Method: as §1
# [48] = molecular target: VARS, P26640
# Method: as §1
# [49] = molecular target: ZNF512, Q96ME7
# Method: as §1
# [50] = molecular target: CCDC124, Q96CT7
# Method: as §1
# [51] = molecular target: CTNND1, O60716
# Method: as §1
# [52] = molecular target: DDOST, P39656
# Method: as §1
# [53] = molecular target: DDX27, Q96GQ7
# Method: as §1
# [54] = molecular target: DNAJB6, O75190
# Method: as §1
# [55] = molecular target: EHD4, Q9H223
# Method: as §1
# [56] = molecular target: EIF3D, O15371
# Method: as §1
# [57] = molecular target: HSPH1, Q92598
# Method: as §1
# [58] = molecular target: LARP1, Q6PKG0
# Method: as §1
# [59] = molecular target: MAGOHB, Q96A72
# Method: as §1
# [60] = molecular target: MCM2, P49736
# Method: as §1
# [61] = molecular target: NSA2, O95478
# Method: as §1
# [62] = molecular target: POLR2G, P62487
# Method: as §1
# [63] = molecular target: PSMD11, O00231
# Method: as §1
# [64] = molecular target: RRS1, Q15050
# Method: as §1
# [65] = molecular target: STRIP1, Q5VSL9
# Method: as §1
# [66] = molecular target: TSR1, Q2NL82
# Method: as §1
# [67] = molecular target: CAND2, O75155
# Method: as §1
# [68] = molecular target: CSNK1A1, P48729
# Method: as §1
# [69] = molecular target: DARS2, Q6PI48
# Method: as §1
# [70] = molecular target: DDX42, Q86XP3
# Method: as §1
# [71] = molecular target: EEF1B2, P24534
# Method: as §1
# [72] = molecular target: FGF2, P09038
# Method: as §1
# [73] = molecular target: GNL1, P36915
# Method: as §1
# [74] = molecular target: MRGBP, Q9NV56
# Method: as §1
# [75] = molecular target: MRPL27, Q9P0M9
# Method: as §1
# [76] = molecular target: TTC27, Q6P3X3
# Method: as §1
# [77] = molecular target: DIEXF, Q68CQ4
# Method: as §1
# [78] = molecular target: MBOAT7, Q96N66
# Method: as §1
# [79] = molecular target: MON2, Q7Z3U7
# Method: as §1
# [80] = molecular target: MRPS15, P82914
# Method: as §1
# [81] = molecular target: PA2G4, Q9UQ80
# Method: as §1
# [82] = molecular target: TFAM, Q00059
# Method: as §1
# [83] = molecular target: TKFC, Q3LXA3
# Method: as §1
# [84] = molecular target: ZNF326, Q5BKZ1
# Method: as §1
binder,measurement,setting,value
TCRKKARILTSSRAF [PALLD],PRISMA enrichment of interactor (log2),[1],5.24
same,PRISMA enrichment of interactor (log2),[2],4.74
same,PRISMA enrichment of interactor (log2),[3],4.48
same,PRISMA enrichment of interactor (log2),[4],6.38
same,PRISMA enrichment of interactor (log2),[5],6.94
KQSVWKWRNGLPCMS,PRISMA enrichment of interactor (log2),[6],4.28
same,PRISMA enrichment of interactor (log2),[7],4.93
same,PRISMA enrichment of interactor (log2),[8],4.14
same,PRISMA enrichment of interactor (log2),[9],6
same,PRISMA enrichment of interactor (log2),[10],4.73
same,PRISMA enrichment of interactor (log2),[11],4.44
same,PRISMA enrichment of interactor (log2),[12],4.38
DTARSALQPDLLARR [PVT1],PRISMA enrichment of interactor (log2),[13],5.13
same,PRISMA enrichment of interactor (log2),[14],4.6
same,PRISMA enrichment of interactor (log2),[15],4.87
same,PRISMA enrichment of interactor (log2),[16],5.37
same,PRISMA enrichment of interactor (log2),[17],7.54
same,PRISMA enrichment of interactor (log2),[18],7.08
same,PRISMA enrichment of interactor (log2),[19],8.44
same,PRISMA enrichment of interactor (log2),[20],7.97
same,PRISMA enrichment of interactor (log2),[21],5.55
same,PRISMA enrichment of interactor (log2),[22],5.98
same,PRISMA enrichment of interactor (log2),[23],8.37
same,PRISMA enrichment of interactor (log2),[24],5.96
same,PRISMA enrichment of interactor (log2),[25],5.08
same,PRISMA enrichment of interactor (log2),[26],4.86
same,PRISMA enrichment of interactor (log2),[27],8.99
same,PRISMA enrichment of interactor (log2),[28],4.89
same,PRISMA enrichment of interactor (log2),[29],6.33
GIDYSKKEFRGTAEN [LINC01560],PRISMA enrichment of interactor (log2),[30],4.7
same,PRISMA enrichment of interactor (log2),[31],8.69
same,PRISMA enrichment of interactor (log2),[32],7.35
same,PRISMA enrichment of interactor (log2),[33],5.01
same,PRISMA enrichment of interactor (log2),[34],4.07
same,PRISMA enrichment of interactor (log2),[35],4.74
same,PRISMA enrichment of interactor (log2),[36],5.75
same,PRISMA enrichment of interactor (log2),[37],4.75
same,PRISMA enrichment of interactor (log2),[38],4.71
same,PRISMA enrichment of interactor (log2),[39],7.36
same,PRISMA enrichment of interactor (log2),[40],4.48
same,PRISMA enrichment of interactor (log2),[41],4.06
same,PRISMA enrichment of interactor (log2),[42],6.87
same,PRISMA enrichment of interactor (log2),[43],8.68
same,PRISMA enrichment of interactor (log2),[44],7.17
same,PRISMA enrichment of interactor (log2),[45],5.08
same,PRISMA enrichment of interactor (log2),[46],4.51
same,PRISMA enrichment of interactor (log2),[47],3.98
same,PRISMA enrichment of interactor (log2),[48],4.35
same,PRISMA enrichment of interactor (log2),[49],5.12
RLRYGGLANNLAGVF,PRISMA enrichment of interactor (log2),[50],5.52
same,PRISMA enrichment of interactor (log2),[51],4.51
same,PRISMA enrichment of interactor (log2),[52],4.68
same,PRISMA enrichment of interactor (log2),[53],5.13
same,PRISMA enrichment of interactor (log2),[54],7.5
same,PRISMA enrichment of interactor (log2),[55],5.25
same,PRISMA enrichment of interactor (log2),[56],5.43
same,PRISMA enrichment of interactor (log2),[57],5.11
same,PRISMA enrichment of interactor (log2),[58],5.55
same,PRISMA enrichment of interactor (log2),[59],4.19
same,PRISMA enrichment of interactor (log2),[60],5.68
same,PRISMA enrichment of interactor (log2),[61],4.74
same,PRISMA enrichment of interactor (log2),[62],4.86
same,PRISMA enrichment of interactor (log2),[63],5.61
same,PRISMA enrichment of interactor (log2),[64],5.23
same,PRISMA enrichment of interactor (log2),[65],5.62
same,PRISMA enrichment of interactor (log2),[66],6.16
FQNVFVLHMTLLWKK [RP11-432J24.5_2],PRISMA enrichment of interactor (log2),[67],5.46
same,PRISMA enrichment of interactor (log2),[68],6.6
same,PRISMA enrichment of interactor (log2),[69],4.41
same,PRISMA enrichment of interactor (log2),[70],7.3
same,PRISMA enrichment of interactor (log2),[71],5.21
same,PRISMA enrichment of interactor (log2),[72],3.79
same,PRISMA enrichment of interactor (log2),[73],4.71
same,PRISMA enrichment of interactor (log2),[74],4.35
same,PRISMA enrichment of interactor (log2),[75],7.36
same,PRISMA enrichment of interactor (log2),[76],4.66
GRMRIATEVLKSKPN [GAS5],PRISMA enrichment of interactor (log2),[1],6.1
same,PRISMA enrichment of interactor (log2),[77],4.28
same,PRISMA enrichment of interactor (log2),[78],4.32
same,PRISMA enrichment of interactor (log2),[79],5.98
same,PRISMA enrichment of interactor (log2),[80],9.62
same,PRISMA enrichment of interactor (log2),[81],5.05
same,PRISMA enrichment of interactor (log2),[82],4.83
same,PRISMA enrichment of interactor (log2),[83],4.74
same,PRISMA enrichment of interactor (log2),[84],5.81
